# Literature values in article PMC8245906 (Acta Pharmaceutica Sinica. B, 2021).
# System: SARS-CoV-2
# Settings: read-out: EC50 against SARS-CoV-2; primary human airway epithelial cells; cited from earlier work
structure (smiles),measurement,value
"CCC(CC)COC(=O)[C@H](C)N[P@](=O)(OC[C@H]1O[C@@](C#N)(c2ccc3c(N)ncnn23)[C@H](O)[C@@H]1O)Oc1ccccc1 [RDV, Remdesivir]",EC50,10 nM
